Assay results taken from PubChem BioAssay AID540276 (National Center for Advancing Translational Sciences (NCATS), 2011).
Screen size: about 300,000 compounds; about 5,400 (1.8%) were called active. This list was built around the results that the source calls inconclusive (neither active nor inactive); the mix of calls is not that of the screen. Calls come from the whole dose curve; tested in HEK293 cells. A potency beside an inconclusive call is a rough fit, not a confirmed value. A structure can be active in one record and inactive in another.

Assay: qHTS for inhibitors of binding or entry into cells for Marburg Virus
Settings: Marburg virus pseudotyped entry inhibition, cell reporter; activity change, negative = inhibition: at 37.8 µM (top of the series) unless noted
% is set by controls: 0 for no effect and ±100 for the full control effect; potency is the fitted concentration of half-maximal effect.

SMILES	activity change, negative = inhibition	Potency
N#CC(C(=O)Nc1cccc(Cl)c1)=C1Nc2ccccc2N1	inactive: -0.0765%	–
COC(=O)C(C)(N)Cc1ccc(O)cc1 (configuration not stated)	–	active: 2.82 µM
O=c1c2sc3ccccc3c2n(Cc2ccccc2Cl)c(=O)n1Cc1ccccc1	–	inconclusive: 35.5 µM [inhibitor, single point]
Cc1cccc(Nc2ccc(C(=O)N3CCOCC3)cn2)c1	inactive: -19.4% [at 46.1 µM]	–
COc1nc(NCC(C)C)nc(Oc2ccc(OCc3ccccc3)nn2)n1	inactive: 4.24% [at 46.1 µM]	–
O=C1NC(=O)N(CCC2=CCCCC2)C(=O)/C1=C/c1ccc(O)cc1	inactive: 6.62%	–
Cc1cccc(-c2noc(CNC(=O)c3ccc4c(c3)OCO4)n2)c1	–	inconclusive: 35.5 µM [inhibitor, single point]
COc1ccc(N(C(=O)c2snc(C(N)=O)c2N)C(C(=O)NCc2ccc(F)cc2)c2ccc(C)o2)c(OC)c1 (configuration not stated)	–	active: 12.6 µM
Cc1ccc2c(CC(=O)NCc3ccccc3)coc2c1C	–	inconclusive: 0.631 µM [inhibitor, full curve, poor fit]
Cc1ccc(NC(=O)c2cccnc2C(=O)O)nc1	inactive: -2.75% [at 46.1 µM]	–
O=C(O)c1ccccc1OC(=O)C12CC3CC(CC(C3)C1)C2	inactive: -15.5% [at 46.1 µM]	–
COc1ccc(C(=O)N(Cc2ccc(N(C)C)cc2)Cc2ccco2)cc1Cl	inactive: 10.8% [at 46.1 µM]	–
O=C(NCc1cccnc1)c1cc(Sc2ccc(F)cc2F)nc2ccccc12	–	active: 11.2 µM
COc1ccccc1C(=O)Nc1ccc(NC(=O)c2ccco2)cn1	–	inconclusive: 3.98 µM [activator, single point]
CCOc1cccc(/C=N/N2C(=O)CSC2=S)c1O	–	inconclusive: 5.01 µM [inhibitor, single point]
CC(=O)c1sc2nc(C)c3c(c2c1N)CCCC3	inactive: 8.77% [at 46.1 µM]	–
Cc1ccc(C)c(C(=O)COc2ccc(C)nc2[N+](=O)[O-])c1	–	inconclusive: 0.562 µM [activator, full curve, poor fit]
Cc1ccc(-n2nc3c(c2NC(=O)c2ccc(S(=O)(=O)N4CCOCC4)cc2)CSC3)c(C)c1	inactive: -2.85%	–
COc1ccc(CCNC(=O)c2ccc(N3CCCC3=O)cc2)cc1OC	inactive: 8.19%	–
COc1ccc(C)cc1S(=O)(=O)N(C)CC(=O)N1CCCCC1	–	inconclusive: 0.398 µM [activator, single point]
Oc1c(C(c2ccccn2)N2CCC(Cc3ccccc3)CC2)cc(Cl)c2cccnc12 (configuration not stated)	–	inconclusive: 3.98 µM [inhibitor, full curve, poor fit]
COc1ccc(NC(=O)CN(C)C(=O)CN2C(=O)NC3(CCCC3)C2=O)cc1	–	inconclusive: 6.31 µM [activator, partial curve, poor fit]
CC(=O)c1cccc(NC=C2C(=O)OC3(CCCCC3)OC2=O)c1	–	inconclusive: 35.5 µM [activator, single point]
CCC1(C(=O)c2ccccc2)C2c3cc(Br)ccc3OC(=O)C21C(=O)N1CCOCC1 (configuration not stated)	inactive: 22.8%	–

An excerpt taken from the entries so far, for reference:
SMILES	activity change, negative = inhibition	Potency
COc1ccc(C(=O)N(Cc2ccc(N(C)C)cc2)Cc2ccco2)cc1Cl	inactive: 10.8% [at 46.1 µM]	–
O=C(NCc1cccnc1)c1cc(Sc2ccc(F)cc2F)nc2ccccc12	–	active: 11.2 µM
COc1ccccc1C(=O)Nc1ccc(NC(=O)c2ccco2)cn1	–	inconclusive: 3.98 µM [activator, single point]

Additional results.

SMILES	activity change, negative = inhibition	Potency
Cc1[nH]n(S(=O)(=O)c2ccccc2)c(=O)c1N=Nc1cccc(Cl)c1	inactive: -0.785%	–
S=c1[nH]c2cnc(Cl)nc2[nH]1	inactive: 0.565% [at 46.1 µM]	–
COc1cccc(C(=O)Nc2ccc(S(=O)(=O)Nc3nccc(C)n3)cc2)c1	–	inconclusive: 6.31 µM [activator, single point]
O=C(Cn1cnc2ccccc2c1=O)c1cccs1	inactive: 16.3%	–
Cc1ccc(C)c(S(=O)(=O)N2CCCCC2CCNC(=O)C(=O)NCc2cccnc2)c1 (configuration not stated)	–	inconclusive: 35.5 µM [inhibitor, single point]
COc1ccc(CNC(=O)Cn2c(=O)oc3cc(S(=O)(=O)N4CCC(C)CC4)ccc32)cc1	–	active: 7.08 µM
CCN1/C(=C/c2cc[n+](C)cc2)C=Cc2cc(C)ccc21	–	inconclusive: 0.794 µM [inhibitor, full curve, poor fit]
O=C(Nc1cccc2c1CCCC2)c1ccccc1F	inactive: 9.43%	–
COCCNC(=O)c1ccc(-n2c(SCc3cccnc3)nc3ccccc3c2=O)cc1	–	inconclusive: 11.2 µM [inhibitor, partial curve, poor fit]
NS(=O)(=O)c1ccc(NC(=O)c2ccc3c(c2)OCO3)cc1	–	inconclusive: 3.55 µM [inhibitor, single point]
Cc1ccc(C(=O)N/N=C/c2cc(C)n(-c3ccc(Br)cc3)c2C)cc1[N+](=O)[O-]	–	inconclusive: 10 µM [inhibitor, partial curve, poor fit]
COCCN1C(=O)c2ccccc2C(C(=O)Nc2ccc3c(c2)OCCO3)C1c1ccc(F)cc1 (configuration not stated)	–	inconclusive: 2.59 µM [inhibitor, partial curve, poor fit]
O=C(Nc1ccncc1)c1cc(S(=O)(=O)N2CCN(c3ccccc3)CC2)ccc1Cl	–	inconclusive: 35.5 µM [inhibitor, single point]
Cc1cc(-c2nnc(SCC(=O)N3C(C)CCCC3C)o2)no1 (configuration not stated)	inactive: 3.33%	–
O=C(Nc1ccc(Cl)c(Cl)c1)C1C2C=CC3(O2)C1C(=O)N(CCN1CCCCC1)C3C(=O)NC1CCCCC1 (configuration not stated)	–	inconclusive: 12.6 µM [inhibitor, partial curve, poor fit]
CCOc1ccc(NC(=O)CN2CCN(S(=O)(=O)c3ccc(Cl)cc3)CC2)cc1	inactive: 2.93% [at 46.1 µM]	–
O=C1CCC(/C=C/c2ccccc2)=NN1Cc1ccc(Cl)c(Cl)c1	–	inconclusive: 25.1 µM [activator, single point]
O=C(Nc1nc2ccc(Cl)cc2s1)[C@@H]1CCCN1C(=O)c1cccs1	–	inconclusive: 29.1 µM [activator, single point]
CCc1ccc(Nc2nnc(SCC(=O)N(C)CC(=O)Nc3ccccc3CC)s2)cc1	–	inconclusive: 29.1 µM [inhibitor, single point]
CCOC(=O)c1ccccc1NC(=O)NC(C)c1c(-n2cccc2)sc(C)c1C (configuration not stated)	inactive: 1.38% [at 46.1 µM]	–
CC(Sc1ncnc2sccc12)C(=O)Nc1ccc(S(N)(=O)=O)cc1 (configuration not stated)	–	inconclusive: 3.55 µM [activator, single point]
c1nc(N2CCC3(CC2)OCCO3)c2c3c(sc2n1)CCCC3	inactive: -28.7% [at 46.1 µM]	–
COc1ccc(CNC(=O)CN2C(=O)CCSc3ccc(S(=O)(=O)N4CCCC4)cc32)cc1	–	inconclusive: 5.01 µM [activator, single point]
